# Results reported in PubChem BioAssay (NCATS).
# Sequences of proteins named here, by UniProt entry; tags and fusion partners are left off. A change or cut given only in a name is not applied to a line headed by its entry.
# UniProt P27695, whole entry, looked up: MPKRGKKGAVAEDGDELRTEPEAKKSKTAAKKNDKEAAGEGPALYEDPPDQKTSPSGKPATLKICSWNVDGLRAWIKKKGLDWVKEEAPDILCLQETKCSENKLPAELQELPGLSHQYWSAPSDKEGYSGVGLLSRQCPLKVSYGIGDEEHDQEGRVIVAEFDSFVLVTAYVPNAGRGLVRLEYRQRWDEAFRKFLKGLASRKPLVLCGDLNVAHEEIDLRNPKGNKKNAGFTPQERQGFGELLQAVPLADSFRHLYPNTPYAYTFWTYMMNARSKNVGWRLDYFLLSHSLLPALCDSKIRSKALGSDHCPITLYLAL
# UniProt Q9NUW8, whole entry, looked up: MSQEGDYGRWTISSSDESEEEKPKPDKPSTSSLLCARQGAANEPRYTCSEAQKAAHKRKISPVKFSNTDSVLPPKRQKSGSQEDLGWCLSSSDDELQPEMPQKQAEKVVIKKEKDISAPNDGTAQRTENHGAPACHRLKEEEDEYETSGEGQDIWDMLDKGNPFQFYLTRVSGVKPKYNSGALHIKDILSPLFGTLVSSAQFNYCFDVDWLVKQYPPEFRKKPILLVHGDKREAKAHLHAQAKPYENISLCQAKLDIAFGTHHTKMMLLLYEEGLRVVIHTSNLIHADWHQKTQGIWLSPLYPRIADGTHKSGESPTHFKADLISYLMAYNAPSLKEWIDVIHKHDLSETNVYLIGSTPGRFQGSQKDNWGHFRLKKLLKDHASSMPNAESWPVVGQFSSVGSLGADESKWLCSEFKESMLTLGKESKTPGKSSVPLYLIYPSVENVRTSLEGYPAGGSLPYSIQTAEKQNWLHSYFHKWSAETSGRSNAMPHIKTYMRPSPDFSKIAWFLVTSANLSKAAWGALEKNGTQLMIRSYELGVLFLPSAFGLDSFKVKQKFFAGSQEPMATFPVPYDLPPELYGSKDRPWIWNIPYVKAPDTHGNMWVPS
# UniProt Q9Y468: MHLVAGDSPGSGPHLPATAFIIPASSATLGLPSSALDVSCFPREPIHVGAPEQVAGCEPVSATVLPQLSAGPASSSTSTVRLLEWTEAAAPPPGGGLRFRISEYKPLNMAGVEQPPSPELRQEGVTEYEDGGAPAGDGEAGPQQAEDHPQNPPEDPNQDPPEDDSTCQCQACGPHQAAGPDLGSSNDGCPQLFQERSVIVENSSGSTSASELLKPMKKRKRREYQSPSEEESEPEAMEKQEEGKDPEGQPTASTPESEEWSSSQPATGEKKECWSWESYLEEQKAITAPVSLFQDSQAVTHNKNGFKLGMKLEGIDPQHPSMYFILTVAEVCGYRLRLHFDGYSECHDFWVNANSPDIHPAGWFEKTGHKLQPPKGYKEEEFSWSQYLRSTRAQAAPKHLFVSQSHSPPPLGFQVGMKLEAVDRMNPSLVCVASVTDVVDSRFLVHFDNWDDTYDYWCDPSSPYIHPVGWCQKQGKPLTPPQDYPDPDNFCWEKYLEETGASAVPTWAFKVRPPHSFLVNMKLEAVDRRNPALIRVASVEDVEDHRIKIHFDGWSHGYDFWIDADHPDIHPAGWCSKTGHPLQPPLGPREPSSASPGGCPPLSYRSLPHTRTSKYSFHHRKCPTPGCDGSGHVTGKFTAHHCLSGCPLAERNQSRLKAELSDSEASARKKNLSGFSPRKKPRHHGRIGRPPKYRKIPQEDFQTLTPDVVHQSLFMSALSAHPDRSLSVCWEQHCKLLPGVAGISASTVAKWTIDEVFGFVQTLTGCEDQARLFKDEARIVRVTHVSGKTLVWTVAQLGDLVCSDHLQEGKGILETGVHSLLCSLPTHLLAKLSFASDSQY
# UniProt Q9Y253: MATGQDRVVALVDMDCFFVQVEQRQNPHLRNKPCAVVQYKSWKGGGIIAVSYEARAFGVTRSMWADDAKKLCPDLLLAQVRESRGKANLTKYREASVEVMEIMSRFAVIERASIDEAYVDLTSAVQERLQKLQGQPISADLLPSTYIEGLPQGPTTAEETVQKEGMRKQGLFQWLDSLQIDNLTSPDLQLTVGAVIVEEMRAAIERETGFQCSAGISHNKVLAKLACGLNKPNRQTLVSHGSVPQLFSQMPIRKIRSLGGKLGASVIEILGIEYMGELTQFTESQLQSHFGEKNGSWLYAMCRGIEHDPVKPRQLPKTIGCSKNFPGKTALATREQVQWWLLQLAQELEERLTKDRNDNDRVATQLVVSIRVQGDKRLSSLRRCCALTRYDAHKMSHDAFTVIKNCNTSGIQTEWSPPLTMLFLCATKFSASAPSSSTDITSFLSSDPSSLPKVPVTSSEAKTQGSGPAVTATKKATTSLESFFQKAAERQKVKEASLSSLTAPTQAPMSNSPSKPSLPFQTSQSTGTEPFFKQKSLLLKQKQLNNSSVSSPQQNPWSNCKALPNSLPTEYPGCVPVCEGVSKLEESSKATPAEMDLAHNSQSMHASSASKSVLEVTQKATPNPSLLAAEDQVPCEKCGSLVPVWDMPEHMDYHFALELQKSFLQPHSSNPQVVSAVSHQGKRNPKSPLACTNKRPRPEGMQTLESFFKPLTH
# UniProt Q9UNA4: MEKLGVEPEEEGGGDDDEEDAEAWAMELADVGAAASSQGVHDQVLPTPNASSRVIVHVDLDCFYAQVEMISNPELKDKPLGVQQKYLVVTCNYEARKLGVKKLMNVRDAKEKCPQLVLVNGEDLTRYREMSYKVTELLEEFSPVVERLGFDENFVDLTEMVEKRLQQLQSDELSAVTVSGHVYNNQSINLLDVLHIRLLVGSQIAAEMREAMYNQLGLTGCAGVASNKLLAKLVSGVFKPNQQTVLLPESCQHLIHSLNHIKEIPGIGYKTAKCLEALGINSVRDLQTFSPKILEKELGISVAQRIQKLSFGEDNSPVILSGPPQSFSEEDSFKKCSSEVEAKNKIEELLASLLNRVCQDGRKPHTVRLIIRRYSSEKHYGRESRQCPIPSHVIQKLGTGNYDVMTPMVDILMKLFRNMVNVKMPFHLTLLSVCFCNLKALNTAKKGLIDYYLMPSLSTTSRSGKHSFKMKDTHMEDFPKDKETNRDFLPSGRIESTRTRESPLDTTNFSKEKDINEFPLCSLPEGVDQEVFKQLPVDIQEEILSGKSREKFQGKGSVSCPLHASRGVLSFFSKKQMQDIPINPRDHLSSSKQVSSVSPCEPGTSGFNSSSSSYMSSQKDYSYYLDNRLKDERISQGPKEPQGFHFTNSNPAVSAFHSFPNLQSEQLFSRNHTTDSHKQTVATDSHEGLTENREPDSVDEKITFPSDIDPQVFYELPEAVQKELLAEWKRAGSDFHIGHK
# The inconclusive results got no clear call from the source; some entries with a clear call stand among them for comparison. For part of these data: Potencies of inconclusive entries are doubtful fits and often do not repeat. The source made the active and inactive calls. The call rests on the fitted dose curve; in most records, active means well fitted curve in the direction sought with a large enough effect; inconclusive means small, poorly fitted or top-dose-only effect, or another doubt; inactive means no such curve, though single readings can be large; an effect the other way counts as inactive or inconclusive.
# How the values were obtained:
# [1] = Counterscreen for APE1 Inhibitors: Fluorescent Dye Displacement Assay (AID 2564); conditions: DNA fluorescent dye displacement counterscreen, fluorescence; series mostly up to 28.5 µM;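 further: loss of thiazole orange fluorescence as the dye is displaced from duplex DNA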
# How it was run: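 Thiazole Orange displacement from dsDNA: 250 nM ThO with 50 nM TAMRA-labelled abasic-site (tetrahydrofuran) duplex in 50 mM Tris-HCl pH7.5, 50mM NaCl, 2 mM MgCl2, 0.01% Tween-20. Loss of endpoint fluorescence (ex 480 nm, em 540 nm) flags DNA binders.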
# [2] = molecular target: DNA repair nuclease/redox regulator APEX1 (Homo sapiens) (UniProt P27695); assay: Confirmation qHTS Assay for Inhibitors of the Human Apurinic/apyrimidinic Endonuclease 1 (APE1) (AID 2572); conditions: purified APE1, fluorogenic abasic-site DNA cleavage; series mostly up to 57.1 µM; further: nearly all actives have a fitted effect of over 30% in size
# How it was run: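 Enzyme preincubated 15 min at room temperature with compound; reaction started with 50 nM final double-stranded THF abasic-site substrate (5'-TAMRA, 3'-BHQ-2). Fluorescence read kinetically (525/598 nm); third-minus-first read difference gives reaction progress.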
# [3] = molecular target: DNA repair nuclease/redox regulator APEX1 (Homo sapiens) (UniProt P27695); assay: qHTS FP-Based Assay for Inhibitors of the Human Apurinic/apyrimidinic Endonuclease 1 (APE1) (AID 2573); conditions: APE1 binding to TAMRA-labelled double-stranded DNA, fluorescence polarization displacement; series mostly up to 28.5 µM
# [4] = molecular target: Tyrosyl-DNA phosphodiesterase 1 (Homo sapiens) (UniProt Q9NUW8); assay: Confirmation Assay for Inhibitors of Tyrosyl-DNA Phosphodiesterase (TDP1) (AID 489007); conditions: recombinant human TDP1 enzymatic activity, dose-response; further: nearly all actives have a fitted effect of over 40% in size
# How it was run: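 Recombinant human Tdp1 (1 nM final), expressed in E. coli, preincubated 15 min with compound. Then 15 nM 5'-biotin/3'-phosphotyrosine-FITC DNA substrate added for 5 min at room temperature. AlphaScreen beads (10 ug/ml) added for 10 min; cleavage gives signal loss.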
# [5] = molecular target: Lethal(3)malignant brain tumor-like protein 1 (Homo sapiens) (UniProt Q9Y468); assay: qHTS Assay for the Inhibitors of L3MBTL1: Hit Validation (AID 540279); conditions: L3MBTL1 methyl-lysine binding inhibition, biochemical qHTS; further: nearly all actives have a fitted effect of over 70% in size
# How it was run: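 L3MBTL1 (50 nM final) preformed 30 min with biotinylated H3(1-15)K9me1 peptide (75 nM), then compound 30 min at room temperature. Streptavidin donor and nickel chelate acceptor AlphaScreen beads (10 ug/mL each final) added for 30 min before read.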
# [6] = qHTS for Inhibitors of WRN Helicase: Thiazole Orange DNA Binding Counterscreen (AID 720499); conditions: thiazole orange DNA binding displacement, fluorescence; series mostly up to 57.1 µM;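 further: drop in dye fluorescence marks compound binding to DNA; nearly all actives have a fitted effect of over 60% in size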
# How it was run: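 Thiazole orange displacement from unlabeled DNA (50 nM DNA, 100 nM dye) was monitored by fluorescence, ex 480/em 530 nm, following 15 min room-temperature incubation with pintool-dispensed compounds.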
# [7] = molecular target: DNA polymerase eta (Homo sapiens) (UniProt Q9Y253); assay: qHTS for Inhibitors of Polymerase Eta: Confirmatory Assay for Cherry-picked Compounds (AID 720502); conditions: Pol eta primer extension, TAMRA/BHQ fluorescence, 10 min
# How it was run: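 Compounds are preincubated 15 min at room temperature with 10 nM human Pol eta, with buffer-only wells serving as negative control. Adding 50 nM final substrate starts the reaction, and TAMRA fluorescence is read over 10 min.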
# [8] = molecular target: Endonuclease 4 (Escherichia coli (strain K12)) (UniProt P0A6C1); assay: Counterscreen for APE1 Inhibitors: qHTS Assay for Inhibitors of Endonuclease IV (AID 2565); conditions: E. coli Endo IV, fluorogenic AP-site DNA cleavage; series mostly up to 27.1 µM
# How it was run: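 E. coli EndoIV at 2 nM final, preincubated 15 min at room temperature with compound, then 50 nM TAMRA/BHQ-2 THF abasic-site duplex added. Buffer: 50 mM Tris-HCl pH 7.5, 50 mM NaCl, 2 mM MgCl2, 1 mM DTT, 0.01% Tween-20. Kinetic fluorescence increase, third minus first read.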
# [9] = molecular target: DNA polymerase iota (Homo sapiens) (UniProt Q9UNA4); assay: qHTS for Inhibitors of Polymerase Iota: Confirmatory Assay for Cherry-picked Compounds (AID 720496); conditions: Pol iota primer extension, TAMRA/BHQ fluorescence
# How it was run: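 Recombinant human Pol iota (10 nM) was preincubated with compound for 15 min at room temperature, then 50 nM final primer/template substrate was added; the substrate carried a TAMRA-labeled reporter strand and a BHQ-2-quenched template. Fluorescence was read at 0 and 10 min.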
# Potency means the concentration at half of the fitted maximal effect.
structure (smiles),measurement,setting,value
COC(=O)c1ccc(N2NC(=O)/C(=C/c3ccc(-c4ccc(Cl)c(C(=O)O)c4)o3)C2=O)cc1,Potency,[1],active: 6.31 µM
same,Potency,[2],"inconclusive: 5.01 µM [inhibitor, full curve]"
same,Potency,[3],inactive
same,Potency,[4],"inconclusive: 7.94 µM [inhibitor, partial curve, poor fit]"
same,Potency,[5],active: 1.68 µM
same,Potency,[6],"inconclusive: 21.5 µM [inhibitor, partial curve]"
CC1=C(C#N)c2nc(N)c(C#N)c(C)c2/C1=C\c1ccc(-c2ccccc2C(=O)O)o1,Potency,[1],active: 11.2 µM
same,Potency,[3],active: 12.6 µM
O=C(Nc1ccc2nc(-c3ccco3)c(-c3ccco3)nc2c1)NC1CC1,Potency,[1],"inconclusive: 14.1 µM [inhibitor, partial curve]"
same,Potency,[3],"inconclusive: 11.2 µM [inhibitor, partial curve]"
same,Potency,[4],"inconclusive: 3.16 µM [inhibitor, full curve, poor fit]"
CN(CC(=O)NC(=O)NCc1ccco1)Cc1nc2ccccc2c(=O)[nH]1,Potency,[1],"inconclusive: 20 µM [inhibitor, single point]"
same,Potency,[2],"inconclusive: 15.8 µM [inhibitor, partial curve]"
same,Potency,[3],"inconclusive: 22.4 µM [inhibitor, single point]"
same,Potency,[7],"inconclusive: 84.9 µM [inhibitor, single point]"
O=C(CSc1ccsc1[N+](=O)[O-])Nc1cccc(F)c1,Potency,[1],"inconclusive: 14.1 µM [inhibitor, partial curve]"
same,Potency,[2],active: 14.1 µM
same,Potency,[3],inactive
O=C(COc1ccccc1C(=O)N/N=C\c1ccc(O)c(O)c1)N/N=C/c1ccc(O)c(O)c1,Potency,[1],active: 6.31 µM
same,Potency,[3],"inconclusive: 10 µM [inhibitor, partial curve, poor fit]"
Cc1cc(/C=C(/C#N)c2nc3ccccc3[nH]2)c(C)n1-c1cc(C(=O)O)cc(C(=O)O)c1,Potency,[1],inactive
same,Potency,[2],"inconclusive: 12.6 µM [inhibitor, partial curve]"
same,Potency,[3],"inconclusive: 3.16 µM [inhibitor, partial curve]"
O=c1nc2s/c(=C\c3ccco3)c(=O)n2nc1Cc1ccc(F)cc1,Potency,[1],"inconclusive: 14.1 µM [inhibitor, single point]"
same,Potency,[3],"inconclusive: 1.26 µM [inhibitor, full curve, poor fit]"
CCC(C)C(=O)OCC1(c2ccc(C)cc2OC(=O)C(C)C)CO1 (stereo unspecified),Potency,[1],"inconclusive: 8.91 µM [inhibitor, partial curve]"
same,Potency,[3],"inconclusive: 0.141 µM [inhibitor, full curve, poor fit]"
CN1C(=O)S/C(=C/c2cccn2-c2cccc(C(=O)O)c2)C1=O,Potency,[1],"inconclusive: 15.8 µM [inhibitor, partial curve]"
same,Potency,[2],"inconclusive: 17.8 µM [inhibitor, partial curve, poor fit]"
same,Potency,[3],"inconclusive: 0.794 µM [inhibitor, partial curve, poor fit]"
CSc1nc(NCCOCCO)c2sc3nc(-c4ccco4)c4c(c3c2n1)CCC4,Potency,[1],active: 12.6 µM
same,Potency,[2],active: 12.6 µM
same,Potency,[4],"inconclusive: 31.6 µM [inhibitor, full curve]"
CCOc1ccccc1NC(=O)CN(C)S(=O)(=O)c1cccc2nsnc12,Potency,[1],inactive
same,Potency,[2],inactive
same,Potency,[3],inconclusive: 0.0004 µM [inhibitor]
Cc1cc2c3c(cccc3n1)C(=O)c1ccccc1-2,Potency,[1],"inconclusive: 1 µM [inhibitor, full curve]"
same,Potency,[2],"inconclusive: 1 µM [inhibitor, full curve]"
same,Potency,[3],active: 2.51 µM
COC(=O)c1ccccc1NC(=O)COC(=O)/C=C/c1ccco1,Potency,[1],inactive
same,Potency,[2],"inconclusive: 14.1 µM [inhibitor, partial curve]"
same,Potency,[3],inactive
COc1ccc(-c2coc3cc(O)ccc3c2=O)cc1O,Potency,[1],inactive
same,Potency,[3],inactive
COCCCNc1c2c3c(cccc3[nH]c1=O)C(=O)c1ccccc1-2,Potency,[8],active: 12.6 µM
same,Potency,[2],"inconclusive: 14.1 µM [inhibitor, partial curve]"
same,Potency,[3],active: 3.98 µM
same,Potency,[9],"inconclusive: 59.7 µM [inhibitor, partial curve]"
same,Potency,[7],"inconclusive: 42.6 µM [inhibitor, partial curve]"
O=C(OCC1O[C@@H](OC(=O)c2cc(O)c(O)c(O)c2)[C@@H](OC(=O)c2cc(O)c(O)c(O)c2)[C@@H](OC(=O)c2cc(O)c(O)c(O)c2)[C@@H]1OC(=O)c1cc(O)c(O)c(O)c1)c1cc(O)c(O)c(O)c1 (stereo partly specified),Potency,[8],"inconclusive: 0.0501 µM [inhibitor, full curve]"
same,Potency,[3],"inconclusive: 20 µM [inhibitor, partial curve, poor fit]"

# Already shown: an excerpt of the list.
structure (smiles),measurement,setting,value
Cc1cc(/C=C(/C#N)c2nc3ccccc3[nH]2)c(C)n1-c1cc(C(=O)O)cc(C(=O)O)c1,Potency,[3],"inconclusive: 3.16 µM [inhibitor, partial curve]"
O=c1nc2s/c(=C\c3ccco3)c(=O)n2nc1Cc1ccc(F)cc1,Potency,[1],"inconclusive: 14.1 µM [inhibitor, single point]"
same,Potency,[3],"inconclusive: 1.26 µM [inhibitor, full curve, poor fit]"
CCC(C)C(=O)OCC1(c2ccc(C)cc2OC(=O)C(C)C)CO1 (stereo unspecified),Potency,[1],"inconclusive: 8.91 µM [inhibitor, partial curve]"
same,Potency,[3],"inconclusive: 0.141 µM [inhibitor, full curve, poor fit]"
CN1C(=O)S/C(=C/c2cccn2-c2cccc(C(=O)O)c2)C1=O,Potency,[1],"inconclusive: 15.8 µM [inhibitor, partial curve]"
same,Potency,[2],"inconclusive: 17.8 µM [inhibitor, partial curve, poor fit]"
same,Potency,[3],"inconclusive: 0.794 µM [inhibitor, partial curve, poor fit]"
CSc1nc(NCCOCCO)c2sc3nc(-c4ccco4)c4c(c3c2n1)CCC4,Potency,[1],active: 12.6 µM
same,Potency,[2],active: 12.6 µM
same,Potency,[4],"inconclusive: 31.6 µM [inhibitor, full curve]"
CCOc1ccccc1NC(=O)CN(C)S(=O)(=O)c1cccc2nsnc12,Potency,[1],inactive
